Measurements reported in patent US11198710B2, “Transgenic plant having herbicide resistance” (priority 2016, dated 2021).
At least one structure is not confirmed: it was looked up by name or label, or the drawing left a doubt.

Test system: rice plants comprising the TaQ8GTC0 gene introduced therein
Experiment: Herbicide resistance test of rice plants comprising the TaQ8GTC0 gene, gellan gum medium, plant height
Type: in vivo
Conditions: lineage #3-13; minimal concentration (×1), ×4 and ×16 of Table 4
Procedure: Hoagland's mix and 3 g of gellan gum were suspended in 1 liter of distilled water and thoroughly dissolved therein by heating in a microwave. A fraction of the resultant (15 ml) was injected into a tubular bottle before it was cooled (30 ml was injected into the plate). The herbicide was simultaneously added at the time of injection of the gellan gum medium into the tubular bottle or plate, followed by thorough mixing. Rice hulls were soaked in a 50-fold diluted sodium hypochlorite solution (antiformin) (Wako) for approximately 20 minutes and then thoroughly washed with water. Sterilized seeds were soaked in distilled water and allowed to stand at 27° C. for germination (for approximately 2 days). Germinating seeds were softly planted in the gellan gum medium (plate) containing 0.25 μM BS. […] Thereafter, rice seeds that were determined to have BS resistance with the use of root elongation as the indicator were transferred to gellan gum media containing pyroxasulfone (tubal bottles) at the final concentrations of 10^−8, 10^−7, 10^−6, and 10^−5M, respectively. […] These samples were grown at 27° C. under fluorescent light illumination (14 hours of a light period and 10 hours of a dark period) for 4 to 5 days, and the plant heights were then measured. […]

COP(=S)(OC)SCC(=O)N(c1ccc(Cl)cc1)C(C)(C)C [Anilofos]
growth of rice plants comprising the TaQ8GTC0 gene on herbicide medium: the growth thereof was inhibited at the minimal concentration
